# In PubChem BioAssay AID1487 (National Center for Advancing Translational Sciences (NCATS), 2009):
# The whole screen tested about 200,000 compounds, of which about 25 (0.01%) were called active. The inconclusive results got no clear call from the source; some entries with a clear call stand among them for comparison. Calls come from the whole dose curve; as a rule, active = well fitted inhibition curve with a large enough effect in the signal ratio, with a control signal flat (not every such curve was filed as active); inconclusive = small, poorly fitted or top-dose-only effect, or effect the other way, or a change in a side signal; inactive = flat fitted curve, though single readings scatter; the % refers to the signal ratio. A potency beside an inconclusive call is a rough fit, not a confirmed value.
# Experiment: qHTS Assay for Modulators of Lamin A Splicing
# Settings: HeLa LMNA splicing GFP/RFP minigene ratio, 48 h; ratio change, negative = inhibition: at 46.1 µM (top of the series) unless noted
# How it was run: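 S3 HeLa cells stably expressing lamin A-EGFP splicing minigene plus DsRed2, 600 cells/well, 48 h compound exposure at 37C. Laser-scanning cytometry; analysed as GFP (500-530 nm)/RFP (575-640 nm) total intensity ratio; 0.5% DMSO vehicle.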
# % is set by controls: 0 for no effect and ±100 for the full control effect; potency is the fitted concentration of half-maximal effect.
SMILES,"ratio change, negative = inhibition",Potency
Cc1ccc(C(=S)N2CCN(Cc3ccccc3)CC2)cc1,inconclusive: -32.6% [at 46 µM],–
Cc1cc(C)nc(NS(=O)(=O)c2ccc(NC(=O)CN3C(=O)S/C(=C\c4ccccc4)C3=O)cc2)n1,inconclusive: -16.7%,–
COCCSc1ccccc1C(=O)N1CCN(c2ccccc2OC)CC1,inactive,–
COc1ccc(CNc2ncncc2-c2ccc3c(c2)OCO3)c(OC)c1,inconclusive: -36.5%,–
C#CCOCCOCCOCCNc1nc(N2CCN(C(=O)Cn3cc(CC(C)O)nn3)CC2)nc(N2CCN(C(=O)[C@H](CCCCN)n3cc(CCC(=O)O)nn3)CC2)n1 (stereo partly specified),inactive,–
CCCc1ccc(C(=O)O)cc1,inconclusive: -19.3%,–
CC(C)OCCCn1c(=S)[nH]c2ncccc2c1=O,inactive,–
CCN(Cc1cc(OC)c(OC)c(OC)c1)C(=S)Nc1cccc(SC)c1,inconclusive: 18.4% [at 46 µM],–
O=C(Cn1ncc2c1-c1ccccc1OC2)N1CCN(c2ccccn2)CC1,inconclusive: -10.6%,–
COc1ccc(N=c2cc(-c3ccc(OC)cc3)oc3ccccc23)cc1,–,"inconclusive: 35.5 µM [fluorescent, single point]"
COc1ccc(Cl)cc1NC(=O)C1CCCO1 (stereo unspecified),inactive,–
CCOC(=O)c1c(-c2ccc(OC)cc2)csc1NC(=O)COc1ccc2c(C)cc(=O)oc2c1,inconclusive: -12.7%,–
O=C(c1ccc(-c2ccccc2)c(F)c1)C1CCCN(C(=O)c2cncs2)C1 (stereo unspecified),inconclusive: 1.31% [at 46 µM],–
COc1ccc(NC(=O)CCN2CCN(S(=O)(=O)c3cc(Cl)ccc3OC)CC2)cc1,inactive,–
O=C(Nc1cccc2nsnc12)c1cccnc1,inactive,–
Cc1ccccc1C1NC(=S)NC2=C1C(=O)CCC2 (stereo unspecified),inactive,–
COCCN(Cc1cc2cc(C)cc(C)c2nc1Cl)C(=O)Nc1ccccc1,inconclusive: -30.2%,–
O=C(c1cccc(F)c1)N1CCN(c2ccc([N+](=O)[O-])c3cccnc23)CC1,inconclusive: -11.4% [at 46 µM],–
COc1ccc(N2C(=O)CC(N3CCN(c4ccc(S(C)(=O)=O)cc4)CC3)C2=O)cc1 (stereo unspecified),inactive,–
O=C(CCc1ccccc1)NC(=S)Nc1ccc2c(c1)C(=O)OC2,inconclusive: -16.7% [at 46 µM],–
CCOc1ccc(CNC(=O)c2cnc3sc(N(CC)CC)nn3c2=O)cc1,inactive,–
CCOCc1c(C(=O)NC2=Nc3ccccc3NC(CC)=C2C(=O)OCC)oc2ccccc12,inconclusive: -30.4% [at 46 µM],–
COc1ccc(Nc2ncnc3onc(C)c23)c(OC)c1,inactive,–
Cc1c(-c2ccccc2)nc2ccccc2c1C(=O)OCC(=O)Nc1ncc(C(F)(F)F)cc1Cl,inconclusive: -8.43%,–
COc1ccc(N2CCN(C(=O)C(C)n3c(=O)cc(C(F)(F)F)c4c(C)nn(C)c43)CC2)cc1 (stereo unspecified),inactive,–
Fc1ccc(-c2nnc(CSc3nnc(-c4cccs4)o3)o2)cc1,inactive,–

SMILES,"ratio change, negative = inhibition",Potency
CC[C@H](C)[C@H](NC(=O)c1ccc(Cl)cc1)C(=O)OCC(=O)c1ccc2c(c1)NC(=O)CO2,–,"inconclusive: 28.2 µM [cytotoxic, partial curve]"
CSCCC(NS(=O)(=O)c1ccc(Cl)cc1)C(=O)OCC(=O)c1c(C)[nH]c2ccccc12 (stereo unspecified),–,"inconclusive: 35.5 µM [rising, single point]"
Cc1cccc(-n2ncc3c(NCCCN4CCCC4=O)ncnc32)c1,inconclusive: -5.24% [at 0.0737 µM],–
COC(=O)c1sccc1S(=O)(=O)N(CC(=O)Nc1ccc(C)c(F)c1)c1ccc(C)c(C)c1,inconclusive: -18.2% [at 46 µM],–
COc1ccc(NC(=O)CCn2c(-c3ccc(F)cc3)cc(C(C)=O)c2C)c(OC)c1,inconclusive: 8.16% [at 46 µM],–
O=c1c2ccccc2sn1-c1nccs1,inconclusive: -42.8% [at 46 µM],–
CCc1c(C)nc(SCc2nc(-c3ccccc3C)no2)[nH]c1=O,inconclusive: -31.7% [at 46 µM],–
C=CCN1c2ccccc2[C@]23C[C@@H](C(=O)OC)N(C(=O)COCc4ccccc4)C2=NC(C(=O)OC)=C(C(=O)OC)[C@H]13,inconclusive: 4.68% [at 9.22 µM],–
Cc1nc(SCc2nc3ccccc3[nH]2)c2oc3ccccc3c2n1,inconclusive: -16%,–
O=C(N/N=C/c1cn(-c2ccccc2)nc1-c1cccnc1)c1ccc(F)cc1,inactive,–
CCOc1cc(CNc2ncn[nH]2)ccc1OCC(=O)NC(C)(C)C,inconclusive: -5.12% [at 46 µM],–
NNc1nc2c(F)cccc2s1,inactive,–
CCOC(=O)N1CCN(C(=O)c2ccc3c(c2)N(Cc2cccc(Cl)c2)C(=O)c2ccccc2S3=O)CC1 (stereo unspecified),inconclusive: -39.2% [at 46 µM],–
Cc1cc(Nc2c(C#N)c(N)nn2C)ccc1F,–,"inconclusive: 0.158 µM [inhibitor, partial curve, poor fit]"
N=c1c2c(ncn1Cc1ccco1)Oc1c(ccc3ccccc13)C2c1ccccc1 (stereo unspecified),inconclusive: -15.9%,–
CCc1ccc(CN(C(=O)Nc2cccc(Cl)c2)c2ccccn2)cc1,inactive,–
COc1ccc(/C=N/NC(=O)c2cccc(COCC(F)(F)C(F)F)c2)cc1,inconclusive: 3.73%,–
O=C(O)Cc1ccc(NC(=O)Nc2cccc(Cl)c2)cc1,inconclusive: 5.02% [at 9.22 µM],–
COc1ccc(NC(=O)Nc2sc(NS(=O)(=O)c3ccccc3)nc2C)cc1,–,"inconclusive: 1 µM [activator, single point]"
O=C(CCS(=O)(=O)c1ccccc1)Nc1ccc(-c2nc3ccccc3s2)c(O)c1,inactive,–
CC(=O)Nc1ccc(NC(=O)C(c2ccccc2)N2Cc3ccccc3C2=O)cc1 (stereo unspecified),inconclusive: -10.3% [at 46 µM],–
COc1ccc(-c2ccc(SCC(=O)NCc3ccco3)nn2)cc1OC,inactive,–
CCOC(=O)c1[nH]c2c(c1-c1ccc(OC)cc1)C(=O)CC(c1ccc(OC)c(OC)c1)C2 (stereo unspecified),inconclusive: -46.2%,–
CSc1nc2ccc(NS(=O)(=O)c3c(Cl)cccc3Cl)cc2s1,inconclusive: -30.6%,–
Cc1ccc2oc(=O)n(CCCOc3ccccc3)c2c1,inconclusive: 14.1%,–

# Quoted at random: 3 compounds from above
SMILES,"ratio change, negative = inhibition",Potency
C#CCOCCOCCOCCNc1nc(N2CCN(C(=O)Cn3cc(CC(C)O)nn3)CC2)nc(N2CCN(C(=O)[C@H](CCCCN)n3cc(CCC(=O)O)nn3)CC2)n1 (stereo partly specified),inactive,–
Cc1ccc(C(=S)N2CCN(Cc3ccccc3)CC2)cc1,inconclusive: -32.6% [at 46 µM],–
O=C(CCc1ccccc1)NC(=S)Nc1ccc2c(c1)C(=O)OC2,inconclusive: -16.7% [at 46 µM],–
